No constants are given. Whether binding was seen depends on the method and setting. Some binding calls cover weakened binding; strength is not graded here.
T1: HAUS2 (human) (UniProt Q9NVX0)
T1 sequence: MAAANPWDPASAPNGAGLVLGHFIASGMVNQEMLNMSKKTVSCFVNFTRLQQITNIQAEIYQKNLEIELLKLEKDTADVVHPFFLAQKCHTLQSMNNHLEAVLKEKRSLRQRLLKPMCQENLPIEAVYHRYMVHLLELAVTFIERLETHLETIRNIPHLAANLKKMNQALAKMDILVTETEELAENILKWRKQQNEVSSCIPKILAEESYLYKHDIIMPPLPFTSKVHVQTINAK

B1: HAUS5 (protein, UniProt O94927 1-633)
chain: MELAQEARELGCWAVEEMGVPVAARAPESTLRRLCLGQGADIWAYILQHVHSQRTVKKIRGNLLWYGHQDSPQVRRKLELEAAVTRLRAEIQELDQSLELMERDTEAQDTAMEQARQHTQDTQRRALLLRAQAGAMRRQQHTLRDPMQRLQNQLRRLQDMERKAKVDVTFGSLTSAALGLEPVVLRDVRTACTLRAQFLQNLLLPQAKRGSLPTPHDDHFGTSYQQWLSSVETLLTNHPPGHVLAALEHLAAEREAEIRSLCSGDGLGDTEISRPQAPDQSDSSQTLPSMVHLIQEGWRTVGVLVSQRSTLLKERQVLTQRLQGLVEEVERRVLGSSERQVLILGLRRCCLWTELKALHDQSQELQDAAGHRQLLLRELQAKQQRILHWRQLVEETQEQVRLLIKGNSASKTRLCRSPGEVLALVQRKVVPTFEAVAPQSRELLRCLEEEVRHLPHILLGTLLRHRPGELKPLPTVLPSIHQLHPASPRGSSFIALSHKLGLPPGKASELLLPAAASLRQDLLLLQDQRSLWCWDLLHMKTSLPPGLPTQELLQIQASQEKQQKENLGQALKRLEKLLKQALERIPELQGIVGDWWEQPGQAALSEELCQGLSLPQWRLRWVQAQGALQKLCS
B2: HAUS1 (protein, UniProt Q96CS2 1-278)
chain: MEPQEERETQVAAWLKKIFGDHPIPQYEVNPRTTEILHHLSERNRVRDRDVYLVIEDLKQKASEYESEAKYLQDLLMESVNFSPANLSSTGSRYLNALVDSAVALETKDTSLASFIPAVNDLTSDLFRTKSKSEEIKIELEKLEKNLTATLVLEKCLQEDVKKAELHLSTERAKVDNRRQNMDFLKAKSEEFRFGIKAAEEQLSARGMDASLSHQSLVALSEKLARLKQQTIPLKKKLESYLDLMPNPSLAQVKIEEAKRELDSIEAELTRRVDMMEL
B3: HAUS3 (natural protein, human, UniProt Q68CZ6 1-603, looked up)
chain: MSCGNEFVETLKKIGYPKADNLNGEDFDWLFEGVEDESFLKWFCGNVNEQNVLSERELEAFSILQKSGKPILEGAALDEALKTCKTSDLKTPRLDDKELEKLEDEVQTLLKLKNLKIQRRNKCQLMASVTSHKSLRLNAKEEEATKKLKQSQGILNAMITKISNELQALTDEVTQLMMFFRHSNLGQGTNPLVFLSQFSLEKYLSQEEQSTAALTLYTKKQFFQGIHEVVESSNEDNFQLLDIQTPSICDNQEILEERRLEMARLQLAYICAQHQLIHLKASNSSMKSSIKWAEESLHSLTSKAVDKENLDAKISSLTSEIMKLEKEVTQIKDRSLPAVVRENAQLLNMPVVKGDFDLQIAKQDYYTARQELVLNQLIKQKASFELLQLSYEIELRKHRDIYRQLENLVQELSQSNMMLYKQLEMLTDPSVSQQINPRNTIDTKDYSTHRLYQVLEGENKKKELFLTHGNLEEVAEKLKQNISLVQDQLAVSAQEHSFFLSKRNKDVDMLCDTLYQGGNQLLLSDQELTEQFHKVESQLNKLNHLLTDILADVKTKRKTLANNKLHQMEREFYVYFLKDEDYLKDIVENLETQSKIKAVSLED
notes: HAUS3, human; 603; also called H3; source: High5 insect cells, co-infected with baculoviruses; purified as part of the augmin octamer (StrepII-Trap, Superose 6)
B4: HAUS6 (protein, UniProt Q7Z4H7 1-955)
chain: MSSASVTAFEKEHLWMYLQALGFEPGPATIACGKIVSHTHLGVNMFDKLNRDAFHIISYFLFQVLDQSLTKEVFKFCWPPFDQKSDTEFRKHCCEWIKRISGECGSSFPQVVGSLFLSPGGPKFIHLMYHFARFVAMKYIKSNSKNSSHHFVETFNIKPQDLHKCIARCHFARSRFLQILQRQDCVTQKYQENAQLSVKQVRNLRSECIGLENQIKKMEPYDDHSNMEEKIQKVRSLWASVNETLMFLEKEREVVSSVLSLVNQYALDGTNVAINIPRLLLDKIEKQMFQLHIGNVYEAGKLNLLTVIQLLNEVLKVMKYERCQADQARLTVDLHYLEKETKFQKERLSDLKHMRYRIKDDLTTIRHSVVEKQGEWHKKWKEFLGLSPFSLIKGWTPSVDLLPPMSPLSFDPASEEVYAKSILCQYPASLPDAHKQHNQENGCRGDSDTLGALHDLANSPASFLSQSVSSSDRNSVTVLEKDTKMGTPKEKNEAISKKIPEFEVENSPLSDVAKNTESSAFGGSLPAKKSDPFQKEQDHLVEEVARAVLSDSPQLSEGKEIKLEELIDSLGSNPFLTRNQIPRTPENLITEIRSSWRKAIEMEENRTKEPIQMDAEHREVLPESLPVLHNQREFSMADFLLETTVSDFGQSHLTEEKVISDCECVPQKHVLTSHIDEPPTQNQSDLLNKKVICKQDLECLAFTKLSETSRMETFSPAVGNRIDVMGGSEEEFMKILDHLEVSCNKPSTNKTMLWNSFQISSGISSKSFKDNDFGILHETLPEEVGHLSFNSSSSSEANFKLEPNSPMHGGTLLEDVVGGRQTTPESDFNLQALRSRYEALKKSLSKKREESYLSNSQTPERHKPELSPTPQNVQTDDTLNFLDTCDLHTEHIKPSLRTSIGERKRSLSPLIKFSPVEQRLRTTIACSLGELPNLKEEDILNKSLDAKEPPSDLTR
B5: HAUS8 (natural protein, human, UniProt Q9BT25 1-410, looked up)
chain: MADSSGRGAGKPATGPTNSSSAKKKDKRVQGGRVIESRYLQYEKKTTQKAPAGDGSQTRGKMSEGGRKSSLLQKSKADSSGVGKGDLQSTLLEGHGTAPPDLDLSAINDKSIVKKTPQLAKTISKKPESTSFSAPRKKSPDLSEAMEMMESQTLLLTLLSVKMENNLAEFERRAEKNLLIMCKEKEKLQKKAHELKRRLLLSQRKRELADVLDAQIEMLSPFEAVATRFKEQYRTFATALDTTRHELPVRSIHLEGDGQQLLDALQHELVTTQRLLGELDVGDSEENVQVLDLLSELKDVTAKKDLELRRSFAQVLELSAEASKEAALANQEVWEETQGMAPPSRWYFNQDSACRESGGAPKNTPLSEDDNPGASSAPAQATFISPSEDFSSSSQAEVPPSLSRSGRDLS
notes: HAUS8, human; 410; a.a; 1-138 and 340-410 are not seen in the cryo-EM map; also called H8; source: High5 insect cells, co-infected with baculoviruses; purified as part of the augmin octamer (StrepII-Trap, Superose 6)
B6: HAUS6 N-terminal region (a.a. 1–432) (domain or fragment, UniProt Q7Z4H7 1-432)
chain: MSSASVTAFEKEHLWMYLQALGFEPGPATIACGKIVSHTHLGVNMFDKLNRDAFHIISYFLFQVLDQSLTKEVFKFCWPPFDQKSDTEFRKHCCEWIKRISGECGSSFPQVVGSLFLSPGGPKFIHLMYHFARFVAMKYIKSNSKNSSHHFVETFNIKPQDLHKCIARCHFARSRFLQILQRQDCVTQKYQENAQLSVKQVRNLRSECIGLENQIKKMEPYDDHSNMEEKIQKVRSLWASVNETLMFLEKEREVVSSVLSLVNQYALDGTNVAINIPRLLLDKIEKQMFQLHIGNVYEAGKLNLLTVIQLLNEVLKVMKYERCQADQARLTVDLHYLEKETKFQKERLSDLKHMRYRIKDDLTTIRHSVVEKQGEWHKKWKEFLGLSPFSLIKGWTPSVDLLPPMSPLSFDPASEEVYAKSILCQYPASLPD

target: T1, HAUS2 (human); experiment: co-purification; holo-complex, eight subunits co-expressed in High5 cells; cleared lysate on StrepII-Trap (tag on H2), eluted with D-desthiobiotin, then Superose 6; SDS-PAGE

Question: B1 was tested. Which binding did it give?
Answer: binds

Question: B2 was tested. Which binding did it give?
Answer: binds

Question: How did the binding turn out when B3 was run?
Answer: binds

Question: With B4 as the binder, how does the binding read?
Answer: binds

Question: B5 was tested. Which binding did it give?
Answer: binds

target: T1, HAUS2 (human); experiment: cross-linking; purified augmin^ΔH6C with DSSO at 250:1, 500:1, 750:1 and 1000:1 molar ratio, 1 h on ice; trypsin in gel or in solution, LC-MS/MS, MetaMorpheus, 1% FDR; both purified

Question: How did the binding turn out when B6 was run?
Answer: binds

Question: B1 was tested. Which binding did it give?
Answer: binds

target: T1, HAUS2 (human); experiment: cryo-EM structure; augmin^ΔH6C octamer on thin amorphous carbon film, Volta Phase Plate; head, neck and legs refined separately to 5–7 Å; subunits placed by fitting AlphaFold2/ColabFold models into the maps; both purified

Question: Which binding does the source give for B6 here?
Answer: binds

Question: Which binding does the source give for B5 here?
Answer: binds

From article PMC9481612, “Molecular architecture of the augmin complex” (Nature Communications, 2022)
